# Experimental data taken from the supplement of paper PMC3334620.
# Over roughly 33,000 sequences, “E-score (-0.5 to 0.5)” has its median near -0.0034; the highest 2% begin near 0.25. The list shows a part of the results.
# Target: T1, Yap3 (UniProt P38749)
# T1 sequence: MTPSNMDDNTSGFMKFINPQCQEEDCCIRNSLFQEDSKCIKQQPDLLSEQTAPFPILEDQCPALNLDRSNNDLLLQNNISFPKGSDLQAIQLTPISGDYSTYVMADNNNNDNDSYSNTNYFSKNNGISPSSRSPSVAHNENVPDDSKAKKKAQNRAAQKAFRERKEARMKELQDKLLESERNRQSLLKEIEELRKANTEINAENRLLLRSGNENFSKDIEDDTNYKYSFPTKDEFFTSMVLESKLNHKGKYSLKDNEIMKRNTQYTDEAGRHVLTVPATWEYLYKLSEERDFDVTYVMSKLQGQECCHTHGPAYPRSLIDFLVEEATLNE
# Assay: PBM E-score (8-mer binding enrichment) (E-score (-0.5 to 0.5)); higher = stronger / more preferred TF binding
# Conditions: protein concentration: 100 nM; construct: GST-full length
# Procedure, shortened: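 Full-length yeast transcription factors or their DNA-binding domains, GST-tagged and expressed with PURExpress, were applied at about 100-200 nM to universal all-10-mer Agilent arrays. These arrays had been made double-stranded by primer extension on fresh or once-stripped slides. Detection used fluorescent anti-GST, normalisation used masliner, and E-scores for ungapped eight-base words pooled with reverse complements came from the Universal PBM Analysis Suite.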
row,Sequence,PBM E-score
1,CAAGTCTA,-0.096
2,TAGGGCGA,-0.0266
3,GGCTCTCA,-0.204
4,CATACTTA,-0.0208
5,AGTGATTA,0.222
6,AATCTGAC,0.0221
7,CCCTCCGA,-0.242
8,AACACCCC,-0.0613
9,AAACCGGA,0.0608
10,AACCTTTA,-0.0204
11,CCGTCCTC,-0.189
12,CTTACGGC,-0.0983
13,CTGGCGCA,-0.29
14,GCTTTGCA,-0.15
15,GACGAGTA,0.0381
16,AGAGTTAT,0.0954
17,GACACAGC,0.0142
18,CCCCCGCC,-0.395
19,GTGCCCAC,-0.126
20,CCAAGTAA,0.159
21,CTTTTAGA,0.123
22,ATAGTATG,0.134
23,ATAACCTC,0.0424
24,CAGTGTAG,0.0542
25,ACTTACGA,0.315

row,Sequence,PBM E-score
1,AGGGTGGA,-0.0977
2,GAAAAACA,0.094
3,GGAACTAC,-0.162
4,CGGGAAGC,-0.0211
5,ACCTCAAA,0.129
6,CCCTGGCA,-0.15
7,TAGGAGGA,-0.131
8,CACCCGCC,-0.00919
9,CTAGGCTC,-0.278
10,ACCGCGTG,-0.184
11,CGTCCAAC,0.0756
12,ATATATAT,0.231
13,GCTCACAA,0.0362
14,ATATCAAC,0.166
15,CAGCATGA,-0.0544
16,AAATATCT,0.149
17,ACCGGGTA,-0.034
18,GTCCCGAA,-0.152
19,AAGACACA,-0.133
20,AGAACGAG,0.0754
21,TCCAGGCA,0.0398
22,CGATGTCA,-0.0979
23,ACGTCTCT,-0.138
24,AACGCTAG,-0.236
25,CCATCATC,0.0379

row,Sequence,PBM E-score
1,GTGCCTCA,-0.275
2,GGTGGAAA,-0.0239
3,GGCTTCGA,0.00044
4,CACAAAGA,0.0747
5,ACGTAGAT,0.131
6,AGGACCAC,-0.172
7,GATTCCAC,0.0304
8,GGCGGGAC,-0.22
9,ACCTCGTC,-0.0365
10,CGCGCCAG,-0.207
11,GTCCTTTA,-0.109
12,AAGGTGAC,-0.0903
13,AAAGATTC,0.0893
14,CTAACATA,0.204
15,GTCGCAAC,0.138
16,GGATAATA,0.0461
17,CAATACTC,0.247
18,ATGAGCTC,-0.107
19,CGATGGGC,-0.18
20,CTAGAAAA,0.101
21,CTCTGTTC,0.0348
22,CACGCGGC,0.0723
23,GCTAAAGA,0.128
24,TCTGATAA,0.116
25,TATCCAAA,0.189

row,Sequence,PBM E-score
1,GGTAAAAA,0.0596
2,ACTGTCGC,-0.0888
3,AAGGACAC,-0.0338
4,CCCAAGCA,-0.0628
5,CATACAGC,-0.0905
6,GAAGCTCC,-0.0847
7,AGTCGTAA,0.2
8,GCCACGGC,-0.145
9,GGGAGCAA,-0.201
10,GCTCCAGC,-0.037
11,CCTCTCTA,-0.359
12,CTCTTGTA,0.00253
13,GGCACGGA,-0.164
14,CTCCATAC,-0.0796
15,ACACTAGG,0.0672
16,GACGCTTA,-0.193
17,GCGCGTGA,0.0681
18,AAAACCAC,0.0635
19,GGGTACAC,-0.129
20,GATAGGGC,-0.203
21,GCGATTTA,0.0749
22,AGCTGGCC,-0.0947
23,AAAGGAAT,0.0347
24,AGCCACTG,-0.0224
25,CATCCTAC,0.0202

row,Sequence,PBM E-score
1,GAATCTAA,0.101
2,CCCCCGAA,-0.199
3,TAGTCACA,0.215
4,CCCGTATC,-0.2
5,CTAAGGAG,-0.0861
6,GCCGGAAA,0.0689
7,GAGCCTCA,-0.19
8,GGTTGCAC,-0.0143
9,ACGGCTAT,-0.0939
10,CCGTTGTC,0.0985
11,AAAATTGG,0.175
12,GGGCTCGA,-0.113
13,AACACAGA,0.0145
14,GGTGGTTA,-0.0196
15,CAGTAGAC,0.0368
16,GAATTAAC,0.169
17,CTGGTTGC,0.0829
18,CACGGCGC,-0.0839
19,AATAGAAT,0.114
20,GGTACACC,-0.114
21,ATCACTAG,-0.0737
22,CCATCGTC,-0.01
23,CACTGGTA,0.0635
24,GTACGCAC,-0.0905
25,GAGTCCAA,0.00148

row,Sequence,PBM E-score
1,CAGCTGTA,-0.0416
2,TATTCGAA,0.137
3,CACCGGTA,-0.11
4,TGACGGCA,-0.119
5,CAACAGAC,0.0249
6,AATGTACT,0.125
7,CTAGTCCC,-0.136
8,CAGAAAAC,0.133
9,GTCAACAC,0.00939
10,ACGGCTCG,0.0605
11,AATTGCCC,0.0007
12,ACTTCTCT,-0.0355
13,CTGACTTA,0.16
14,ACTGTCAA,0.118
15,ATGGTGCA,0.0162
16,ATAGAGCG,-0.0662
17,CTTGAGTC,-0.145
18,GAGACGGA,0.0162
19,TACCGTGA,-0.0317
20,CTTACATC,0.077
21,CCAGAACG,0.048
22,ACCGGTCA,-0.0676
23,ATCGCCCG,-0.262
24,AGCAGGCT,-0.268
25,ATGATAAC,0.159

# Individual results from the entries so far:
# PBM E-score, CTTACGGC reads -0.0983
# PBM E-score, CGATGGGC reads -0.18
# PBM E-score, GAAGCTCC reads -0.0847
# PBM E-score, GAGACGGA reads 0.0162
# PBM E-score, ACCTCGTC reads -0.0365
# PBM E-score, GCGATTTA reads 0.0749
# PBM E-score, AAAGGAAT reads 0.0347

# The list continues.

row,Sequence,PBM E-score
1,GGCTTCCA,-0.271
2,ACAACGTC,-0.14
3,ATGCAACG,0.00916
4,AGGTATGA,0.168
5,GGATTCCA,0.14
6,CACGGGTC,-0.106
7,CGCCCCTC,-0.333
8,CACCATGA,-0.00372
9,ATCACATA,0.214
10,CAGATCTA,-0.121
11,GACGGTAC,0.0228
12,GATGAGCC,-0.131
13,AAATGATG,0.168
14,AACGACAA,0.0824
15,GACGGAGC,-0.217
16,ACAATCAA,0.174
17,CCCTAGCG,-0.333
18,AATGCTCA,0.0457
19,CTCCCTAA,-0.136
20,AGCGAAGG,-0.144
21,CCGTTATC,0.0476
22,ATCGGTGA,0.144
